Results from PubChem BioAssay AID504467 (National Center for Advancing Translational Sciences (NCATS), 2011).
Screen size: about 330,000 compounds; about 7,700 (2.3%) were called active. This list was built around the results that the source calls inconclusive (neither active nor inactive); the mix of calls is not that of the screen. The call rests on the fitted dose curve; in most records, active means well fitted inhibition curve with a large enough effect; inconclusive means small, poorly fitted or top-dose-only effect, or effect the other way; inactive means flat fitted curve, though single readings scatter. Potencies beside an inconclusive call are fits to weak or partial responses and may not hold up.

experiment: qHTS screen for small molecules that inhibit ELG1-dependent DNA repair in human embryonic kidney (HEK293T) cells expressing luciferase-tagged ELG1; conditions: HEK293T ELG1-luciferase reporter, luminescence, 16 h, DNA damage induced by 5-fluorouridine; series mostly up to 46.1 µM; further: nearly all actives have a fitted effect of over 55% in size
How it was run: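 5-Fluorouridine DNA damage + compound/DMSO, 2,000 cells/well, 16 h, 37 °C/5% CO2. ONE-Glo, 30 min RT, luminescence. Readout = decrease in reporter signal.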
Potency means the concentration at half of the fitted maximal effect.

| Structure (SMILES) | Potency |
| --- | --- |
| CCC(=O)Nc1c(C)nn(-c2ccc(C)c(C)c2)c1C | inconclusive: 16.4 µM [activator, single point] |
| CN(CC(=O)Nc1ccc(F)cc1)C(=O)CN1C(=O)c2cccc([N+](=O)[O-])c2C1=O | inactive |
| Cc1cc2nc(CCN(C(=S)NCC(C)C)C3CCCC3)[nH]c2cc1C | inconclusive: 29.1 µM [inhibitor, single point] |
| CC(=O)OC1OCCOC1NC(=S)Nc1ccc(C)cc1 (centres undefined) | inactive |
| COc1ccc(CNC(=O)c2cc(-c3cccs3)on2)cc1 | inconclusive: 18.4 µM [activator, single point] |
| CC(C)(Oc1ccc(Cl)cc1)C(=O)NC1CC1 | inactive |
| Cc1ccsc1/C=N/NC(=O)Cn1cnc2ccccc21 | inactive |
| Cc1c(C(=O)NC2CC2)oc2ccc(S(=O)(=O)N3CCCCCC3)cc12 | inconclusive: 29.1 µM [inhibitor, single point] |
| COc1cc(-c2nnc(SCC(=O)c3ccc(C)cc3)o2)cc(OC)c1OC | inconclusive: 18.4 µM [inhibitor, single point] |
| CCCn1nnc(NC(=O)c2ccc(OCC)c(Cl)c2)n1 | inactive |
| O=c1[nH]c2ccccc2n1CCCN1CCN(C(c2ccccc2)c2ccccc2)CC1 | inconclusive: 16.4 µM [inhibitor, partial curve] |
| COc1ccc(CC(C#N)(CO)c2nc3ccccc3[nH]2)cc1 (centres undefined) | inactive |
| Cc1cc(NC(=O)Nc2cc(F)ccc2F)no1 | inconclusive: 23.1 µM [inhibitor, single point] |
| CC1=C(C)CC(C(=O)Nc2ccc(C(=O)N3CCOCC3)cc2)C(C(=O)O)C1 (centres undefined) | inactive |
| CCOc1ccc(N(C)S(=O)(=O)c2ccc(C)c(C(=O)NCc3cccs3)c2)cc1 | inconclusive: 25.9 µM [inhibitor, single point] |
| COC(=O)c1ccccc1NCC(=O)c1ccc(OC)cc1 | inconclusive: 29.1 µM [activator, single point] |
| O=C(Nc1ccccc1-c1nc2ccccc2s1)c1ccc(Br)o1 | inactive |
| CCN1CCN(CCCNC(=O)C(NC(=O)C2CCC(C)CC2)C(C)C)CC1 (centres undefined) | inactive |
| O=C(CCl)NCCCCCCCCCNC(=O)CCl | inconclusive: 29.1 µM [inhibitor, single point] |
| S=C(Nc1ccccc1)Nc1ccc(Br)cc1 | inactive |
| Cn1c(C(O)c2ccc(Br)cc2)nc(Cl)c1Cl (centres undefined) | inconclusive: 29.1 µM [activator, single point] |
| Cc1nnc(SCC(=O)NNC(=O)c2ccc(F)cc2)n1Cc1ccccc1 | inactive |
| COC(/C=C/Nc1ccc(OC)cc1)=C(C#N)C#N | inconclusive: 29.1 µM [inhibitor, single point] |
| S=c1[nH]cnc2scc(-c3ccc(Cl)cc3)c12 | active: 16.4 µM |
| CCN1CCCC1CNC(=O)CS(=O)(=O)Cc1nc(-c2ccccc2C)oc1C (centres undefined) | inconclusive: 4.61 µM [inhibitor, single point] |

| Structure (SMILES) | Potency |
| --- | --- |
| COC(=O)C1CCN(C(=O)CSc2nnc(-c3ccccc3)o2)CC1 | inconclusive: 25.9 µM [activator, single point] |
| NC(=O)C1CC(=O)N(c2ccc(OCc3ccc(F)cc3)cc2)C1 (centres undefined) | inconclusive: 16.4 µM [activator, partial curve] |
| O=C(CSc1nc(-c2ccco2)cc(C(F)(F)F)n1)NCCCN1CCOCC1 | inactive |
| COc1cc2nc(NCC3CCCO3)n3nc(-c4cccnc4)nc3c2cc1OC (centres undefined) | active: 2.31 µM |
| CCOC(=O)c1c(C)c(C(=O)NC2CCCCC2)c(C)n1CC | inconclusive: 2.06 µM [inhibitor, full curve, poor fit] |
| O=S(=O)(Nc1ccncc1)c1cc(Cl)c(Cl)cc1Cl | inactive |
| O=C(Nc1nc(-c2ccccn2)cs1)c1ccccc1-n1cnnn1 | active: 2.59 µM |
| COc1n[nH]c(C(=O)NCc2ccccc2)c1[N+](=O)[O-] | inactive |
| COCC(=O)OCC(=O)Nc1ccccc1-c1ccccc1 | inactive |
| Cc1cccc(NC(=S)N(CCN(C)C)Cc2cc3cc(C)cc(C)c3[nH]c2=O)c1 | inconclusive: 23.1 µM [inhibitor, partial curve] |
| O=C(CSc1ccc(-c2cccc([N+](=O)[O-])c2)nn1)N1CCCCCC1 | inconclusive: 25.9 µM [inhibitor, single point] |
| C/C(=N\NC(=O)c1cccc2ccccc12)c1ccccn1 | inconclusive: 29.1 µM [inhibitor, single point] |
| COC(=O)CCS(=O)(=O)c1nc(-c2ccccc2)cc(C(F)(F)F)n1 | inconclusive: 29.1 µM [inhibitor, single point] |
| CSc1n[nH]c(-c2ccc(C(F)(F)F)cc2)n1 | inconclusive: 18.3 µM [activator, partial curve] |
| CCOC(=O)N1CCN(S(=O)(=O)c2ccc(F)c(C(=O)Nc3ccc(C(C)C)cc3)c2)CC1 | inconclusive: 16.4 µM [inhibitor, partial curve, poor fit] |
| O=C(c1ccc(-c2nc3ccccc3s2)s1)N1CCOCC1 | inconclusive: 0.291 µM [activator, partial curve, poor fit] |
| COC(C[C@H](O)CC(=O)COCc1ccccc1)OC | inconclusive: 16.4 µM [activator, partial curve, poor fit] |
| Cc1ccccc1NS(=O)(=O)c1ccc(C(=O)N2CCN(c3ccccn3)CC2)cc1 | inconclusive: 29.1 µM [inhibitor, single point] |
| COc1ccc(/C=C/C(=O)NNc2c(F)c(F)cc(F)c2F)cc1OC | inconclusive: 2.06 µM [inhibitor, partial curve] |
| COc1cc(C(=O)NC(C)C2CC3CCC2C3)ccc1OC(F)F (centres undefined) | inconclusive: 10 µM [inhibitor, partial curve, poor fit] |
| COc1ccc(C(=O)Nc2ccc(N3CCOCC3)cc2)cc1S(=O)(=O)N1CCOCC1 | inactive |
| Cc1ccc2oc(C(=O)Nc3nnc(C)s3)c(C)c2c1 | inconclusive: 5.17 µM [activator, partial curve] |
| Nc1nc2nc(-c3ccc(OCc4ccccc4)cc3)cc(C(F)(F)F)n2n1 | inactive |
| Cc1nn(C)c(C)c1CN(C)S(=O)(=O)c1ccc2ccccc2c1 | inconclusive: 0.58 µM [inhibitor, full curve] |
| COc1ccccc1CNC(=O)COC(=O)Cc1c[nH]c2ccccc12 | inconclusive: 14.6 µM [activator, partial curve, poor fit] |

Reprinted from the entries so far (four entries):

| Structure (SMILES) | Potency |
| --- | --- |
| COc1ccc(/C=C/C(=O)NNc2c(F)c(F)cc(F)c2F)cc1OC | inconclusive: 2.06 µM [inhibitor, partial curve] |
| COc1cc(C(=O)NC(C)C2CC3CCC2C3)ccc1OC(F)F (centres undefined) | inconclusive: 10 µM [inhibitor, partial curve, poor fit] |
| COc1ccc(C(=O)Nc2ccc(N3CCOCC3)cc2)cc1S(=O)(=O)N1CCOCC1 | inactive |
| Cc1ccc2oc(C(=O)Nc3nnc(C)s3)c(C)c2c1 | inconclusive: 5.17 µM [activator, partial curve] |

The list goes on.

| Structure (SMILES) | Potency |
| --- | --- |
| COc1ccc(/C=N/Nc2nncc3ccccc23)cc1 | inconclusive: 0.116 µM [activator, full curve] |
| Cn1ccc(C(=O)NC(=S)N2CCSCC2)n1 | inconclusive: 10.3 µM [activator, partial curve, poor fit] |
| CCOC(=O)c1c(S(=O)(=O)NCc2ccc(C)o2)c(C)n(C)c1C | inactive |
| OC1CCCN(C(=S)Nc2ccc(SC(F)F)cc2)C1 (centres undefined) | inconclusive: 20.6 µM [activator, single point] |
| CN(C)c1cc[n+](CC(=O)c2ccc(-c3ccccc3)cc2)cc1 | active: 2.59 µM |
| CCOc1nc(-c2ccccc2)ccc1-c1noc(-c2cccs2)n1 | inactive |
| Nc1ncc(-c2cc3ccccc3oc2=O)s1 | inconclusive: 2.59 µM [activator, partial curve] |
| c1ccc(-n2nnnc2CN2CCOCC2)cc1 | inconclusive: 13 µM [activator, single point] |
| CC(NC(=O)C(=O)NN=C1CCC(C(C)(C)C)CC1)c1ccccc1 (centres undefined) | inconclusive: 16.4 µM [activator, partial curve, poor fit] |
| COc1cc(/C=N/Nc2nc(-c3ccc(S(=O)(=O)N(C)C)cc3)cs2)ccc1O | active: 11.6 µM |
| CN(Cc1ccccc1)C(=O)C(=O)c1cn(CC(=O)N2CCCC2)c2ccccc12 | inconclusive: 1.16 µM [inhibitor, single point] |
| O=C(NCC(c1cccnc1)N1CCN(c2ccccc2F)CC1)c1ccco1 (centres undefined) | inactive |
| COc1ccc(-c2nc(SCc3ccccc3)n(C(=O)c3ccco3)n2)cc1 | inconclusive: 2.91 µM [activator, partial curve, poor fit] |
| Cc1ccc(C)c(NS(=O)(=O)c2cc(C(=O)N3CCc4ccccc4C3)ccc2Cl)c1 | inactive |
| NC(=O)CCC(NC(=S)Nc1ccccc1)C(=O)O (centres undefined) | inactive |
| COc1ccccc1C1(CCNS(=O)(=O)c2ccc(C)cc2)CCOC(C(C)C)C1 (centres undefined) | inconclusive: 29.1 µM [inhibitor, single point] |
| COc1ccccc1C1(CCN=Cc2ccc(N(C)C)cc2)CCOC(C)(C)C1 (centres undefined) | inactive |
| CCC(=O)c1ccc(OCC(=O)Nc2nc(C)cs2)cc1 | inconclusive: 7.3 µM [activator, partial curve] |
| Nc1cc(S(=O)(=O)Nc2ccc(Br)cc2)ccc1Cl | inconclusive: 20.6 µM [inhibitor, single point] |
| CCOc1ccc2[nH]c(=O)c(CN(Cc3ccccc3)C(=O)N3CCCC3)cc2c1 | inconclusive: 16.4 µM [inhibitor, single point] |
| O=C1NC(c2ccccc2)=C(c2nc3ccccc3s2)C(c2ccc(F)cc2)N1 (centres undefined) | inconclusive: 25.9 µM [inhibitor, partial curve, poor fit] |
| CCOc1ccccc1Nc1ccnc2cc(Cl)ccc12 | inactive |
| CCS(=O)(=O)c1nc(S(=O)(=O)c2ccc(C)cc2)c(N2CC(C)OC(C)C2)s1 (centres undefined) | inactive |
| c1ccc(-c2cnc(CSc3nnc4ccccn34)o2)cc1 | inconclusive: 16.4 µM [activator, partial curve] |
